Assay results: the supplement of paper PMC10849652
The list shows a part of the results.

Chains of the proteins cited; added tags and fusions are not shown. Lines headed by an entry give the natural chain unless they say otherwise; changes in a name come on top.
UniProt Q9BSW2: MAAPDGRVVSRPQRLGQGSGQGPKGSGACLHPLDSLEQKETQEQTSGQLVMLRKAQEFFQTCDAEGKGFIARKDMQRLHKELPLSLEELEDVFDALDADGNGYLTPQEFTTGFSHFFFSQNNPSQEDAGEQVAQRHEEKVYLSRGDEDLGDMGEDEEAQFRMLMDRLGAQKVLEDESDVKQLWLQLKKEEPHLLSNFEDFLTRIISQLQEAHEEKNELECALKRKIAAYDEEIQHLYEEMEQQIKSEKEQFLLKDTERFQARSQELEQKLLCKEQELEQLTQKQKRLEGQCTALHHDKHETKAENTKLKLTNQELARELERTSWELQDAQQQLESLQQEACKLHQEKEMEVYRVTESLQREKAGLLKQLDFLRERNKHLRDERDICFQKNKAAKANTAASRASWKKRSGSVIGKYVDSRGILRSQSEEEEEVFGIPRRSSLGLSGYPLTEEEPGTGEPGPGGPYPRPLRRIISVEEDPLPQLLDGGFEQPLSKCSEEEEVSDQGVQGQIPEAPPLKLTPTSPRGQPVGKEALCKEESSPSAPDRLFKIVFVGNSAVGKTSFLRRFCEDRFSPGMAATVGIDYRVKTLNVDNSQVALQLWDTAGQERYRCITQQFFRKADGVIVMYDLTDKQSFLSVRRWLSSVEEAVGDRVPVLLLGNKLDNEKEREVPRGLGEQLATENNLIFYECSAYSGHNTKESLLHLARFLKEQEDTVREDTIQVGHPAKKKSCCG
UniProt O14548: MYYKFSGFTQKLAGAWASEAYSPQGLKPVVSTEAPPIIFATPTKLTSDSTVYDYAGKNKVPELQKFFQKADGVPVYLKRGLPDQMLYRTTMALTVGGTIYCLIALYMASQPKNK
UniProt Q9BR76, whole entry, looked up: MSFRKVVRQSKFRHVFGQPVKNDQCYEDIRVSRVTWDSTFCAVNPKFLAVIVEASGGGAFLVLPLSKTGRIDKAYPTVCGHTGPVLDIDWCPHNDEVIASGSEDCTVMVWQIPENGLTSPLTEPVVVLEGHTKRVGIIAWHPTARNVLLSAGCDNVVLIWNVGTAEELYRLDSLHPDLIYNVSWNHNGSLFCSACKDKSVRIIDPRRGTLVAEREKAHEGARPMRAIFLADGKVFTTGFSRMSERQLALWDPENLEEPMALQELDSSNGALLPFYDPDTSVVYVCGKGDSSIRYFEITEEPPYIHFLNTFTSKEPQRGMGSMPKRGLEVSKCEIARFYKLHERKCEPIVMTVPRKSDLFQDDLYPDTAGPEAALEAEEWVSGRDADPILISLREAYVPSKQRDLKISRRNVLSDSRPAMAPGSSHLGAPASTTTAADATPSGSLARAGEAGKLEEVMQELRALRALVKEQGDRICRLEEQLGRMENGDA
UniProt Q9NQ92: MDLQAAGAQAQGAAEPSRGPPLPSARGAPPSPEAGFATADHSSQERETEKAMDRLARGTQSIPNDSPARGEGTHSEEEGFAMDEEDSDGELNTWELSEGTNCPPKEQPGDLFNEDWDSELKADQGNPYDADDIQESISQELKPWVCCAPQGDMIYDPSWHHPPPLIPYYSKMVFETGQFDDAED
UniProt Q5HYK3: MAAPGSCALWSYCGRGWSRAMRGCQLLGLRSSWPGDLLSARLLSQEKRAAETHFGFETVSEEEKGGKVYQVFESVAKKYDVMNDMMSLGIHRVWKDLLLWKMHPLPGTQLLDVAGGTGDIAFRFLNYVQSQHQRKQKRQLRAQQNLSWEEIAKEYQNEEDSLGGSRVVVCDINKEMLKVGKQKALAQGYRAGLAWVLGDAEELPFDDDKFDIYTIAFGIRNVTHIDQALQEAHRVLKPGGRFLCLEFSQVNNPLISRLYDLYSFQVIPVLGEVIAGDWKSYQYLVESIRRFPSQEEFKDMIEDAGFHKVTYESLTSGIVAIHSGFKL
UniProt Q86VU5: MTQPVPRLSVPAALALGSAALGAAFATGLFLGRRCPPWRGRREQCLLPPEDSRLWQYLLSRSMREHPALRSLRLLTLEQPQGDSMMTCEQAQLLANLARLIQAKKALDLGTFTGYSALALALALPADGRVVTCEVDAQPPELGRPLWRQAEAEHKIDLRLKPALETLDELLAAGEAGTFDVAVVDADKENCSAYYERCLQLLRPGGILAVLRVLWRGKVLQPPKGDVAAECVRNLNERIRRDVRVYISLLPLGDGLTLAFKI
UniProt Q8N8Q8: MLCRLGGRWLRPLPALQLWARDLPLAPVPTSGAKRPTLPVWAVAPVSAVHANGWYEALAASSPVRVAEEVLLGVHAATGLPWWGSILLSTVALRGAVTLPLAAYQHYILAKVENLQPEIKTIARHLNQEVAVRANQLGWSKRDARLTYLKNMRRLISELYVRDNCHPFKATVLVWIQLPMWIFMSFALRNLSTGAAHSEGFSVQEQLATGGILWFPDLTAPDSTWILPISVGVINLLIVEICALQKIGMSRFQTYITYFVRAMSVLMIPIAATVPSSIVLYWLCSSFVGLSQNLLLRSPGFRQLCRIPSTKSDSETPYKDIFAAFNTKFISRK
UniProt P57737: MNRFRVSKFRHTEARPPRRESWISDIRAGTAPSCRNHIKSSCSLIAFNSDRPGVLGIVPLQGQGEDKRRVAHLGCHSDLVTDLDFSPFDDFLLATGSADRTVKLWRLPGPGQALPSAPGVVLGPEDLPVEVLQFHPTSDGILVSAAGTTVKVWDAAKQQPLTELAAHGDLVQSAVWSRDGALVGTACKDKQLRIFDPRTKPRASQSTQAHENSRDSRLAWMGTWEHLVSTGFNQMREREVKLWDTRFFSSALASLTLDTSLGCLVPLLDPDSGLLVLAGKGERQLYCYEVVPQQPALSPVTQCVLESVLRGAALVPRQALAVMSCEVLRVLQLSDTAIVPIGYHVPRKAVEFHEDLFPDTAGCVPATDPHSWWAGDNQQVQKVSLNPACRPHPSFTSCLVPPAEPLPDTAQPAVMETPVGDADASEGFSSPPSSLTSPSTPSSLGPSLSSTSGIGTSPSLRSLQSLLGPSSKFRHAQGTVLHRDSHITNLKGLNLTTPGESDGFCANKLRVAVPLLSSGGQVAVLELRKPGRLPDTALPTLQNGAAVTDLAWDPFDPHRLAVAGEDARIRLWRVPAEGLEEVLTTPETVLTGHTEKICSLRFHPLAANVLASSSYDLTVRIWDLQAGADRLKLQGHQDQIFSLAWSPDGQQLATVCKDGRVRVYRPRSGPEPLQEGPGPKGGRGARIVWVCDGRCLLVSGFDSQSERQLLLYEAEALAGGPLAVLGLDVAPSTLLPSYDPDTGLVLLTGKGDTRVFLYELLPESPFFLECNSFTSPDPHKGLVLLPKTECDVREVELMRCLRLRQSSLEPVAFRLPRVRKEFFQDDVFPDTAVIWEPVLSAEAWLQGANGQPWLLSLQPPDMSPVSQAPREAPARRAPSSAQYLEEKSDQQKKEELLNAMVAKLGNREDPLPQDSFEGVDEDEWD
UniProt Q6UXH1: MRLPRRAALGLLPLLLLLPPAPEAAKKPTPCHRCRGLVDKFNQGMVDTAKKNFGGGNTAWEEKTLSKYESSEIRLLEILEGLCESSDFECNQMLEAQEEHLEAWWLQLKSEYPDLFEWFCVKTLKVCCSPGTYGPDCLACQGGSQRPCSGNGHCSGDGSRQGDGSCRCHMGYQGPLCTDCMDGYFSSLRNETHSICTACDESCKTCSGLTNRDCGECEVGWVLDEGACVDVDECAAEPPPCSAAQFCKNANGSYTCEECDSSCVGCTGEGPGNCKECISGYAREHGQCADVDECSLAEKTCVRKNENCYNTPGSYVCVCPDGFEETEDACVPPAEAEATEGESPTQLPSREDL
UniProt Q96FN4: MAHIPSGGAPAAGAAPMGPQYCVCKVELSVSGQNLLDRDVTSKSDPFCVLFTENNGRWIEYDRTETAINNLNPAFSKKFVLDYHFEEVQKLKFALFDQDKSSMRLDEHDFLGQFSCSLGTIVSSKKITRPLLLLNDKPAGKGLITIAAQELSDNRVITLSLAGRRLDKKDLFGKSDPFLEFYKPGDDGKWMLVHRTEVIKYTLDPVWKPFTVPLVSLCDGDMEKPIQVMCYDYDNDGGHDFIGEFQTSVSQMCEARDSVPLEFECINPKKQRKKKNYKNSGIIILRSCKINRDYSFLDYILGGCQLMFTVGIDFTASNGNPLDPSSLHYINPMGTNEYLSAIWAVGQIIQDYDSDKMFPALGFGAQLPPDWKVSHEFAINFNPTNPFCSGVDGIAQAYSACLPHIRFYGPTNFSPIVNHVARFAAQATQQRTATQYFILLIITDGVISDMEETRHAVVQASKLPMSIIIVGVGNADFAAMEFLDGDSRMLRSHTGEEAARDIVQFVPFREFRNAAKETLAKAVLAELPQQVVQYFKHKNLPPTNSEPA
UniProt Q9P021, whole entry, looked up: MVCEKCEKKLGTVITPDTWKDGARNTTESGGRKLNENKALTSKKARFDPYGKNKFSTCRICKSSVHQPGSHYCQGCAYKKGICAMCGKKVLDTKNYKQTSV
UniProt Q92905, whole entry, looked up: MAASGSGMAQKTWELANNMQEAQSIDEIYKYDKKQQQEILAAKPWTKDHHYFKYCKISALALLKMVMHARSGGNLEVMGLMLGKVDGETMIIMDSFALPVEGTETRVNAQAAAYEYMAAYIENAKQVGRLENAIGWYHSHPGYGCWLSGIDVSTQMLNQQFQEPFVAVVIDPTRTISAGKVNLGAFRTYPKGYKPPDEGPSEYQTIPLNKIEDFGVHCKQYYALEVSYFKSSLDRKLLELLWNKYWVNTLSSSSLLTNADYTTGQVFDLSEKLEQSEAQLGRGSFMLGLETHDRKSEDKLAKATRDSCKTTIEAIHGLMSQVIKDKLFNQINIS
UniProt O75131: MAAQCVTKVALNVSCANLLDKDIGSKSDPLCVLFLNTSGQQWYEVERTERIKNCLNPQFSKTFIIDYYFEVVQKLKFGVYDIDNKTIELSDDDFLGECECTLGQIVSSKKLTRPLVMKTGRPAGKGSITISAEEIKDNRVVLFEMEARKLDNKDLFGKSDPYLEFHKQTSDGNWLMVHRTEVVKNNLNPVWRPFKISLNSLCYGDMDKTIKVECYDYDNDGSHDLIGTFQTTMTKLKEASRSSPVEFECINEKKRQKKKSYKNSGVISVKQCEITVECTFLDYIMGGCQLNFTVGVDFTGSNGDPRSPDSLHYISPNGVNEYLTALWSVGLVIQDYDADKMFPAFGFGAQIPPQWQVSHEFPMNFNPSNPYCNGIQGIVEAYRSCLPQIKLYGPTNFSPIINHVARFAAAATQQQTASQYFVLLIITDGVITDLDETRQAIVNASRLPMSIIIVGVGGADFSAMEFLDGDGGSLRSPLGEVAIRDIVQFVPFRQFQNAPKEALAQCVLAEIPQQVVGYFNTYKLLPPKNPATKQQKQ
UniProt Q14019: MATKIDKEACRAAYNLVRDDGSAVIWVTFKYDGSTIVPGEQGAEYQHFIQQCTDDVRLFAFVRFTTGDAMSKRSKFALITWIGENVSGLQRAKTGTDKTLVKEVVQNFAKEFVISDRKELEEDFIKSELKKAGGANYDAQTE
UniProt P14406, whole entry, looked up: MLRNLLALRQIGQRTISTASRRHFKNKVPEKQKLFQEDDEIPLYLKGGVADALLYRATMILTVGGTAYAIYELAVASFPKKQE
UniProt Q9H9Q2: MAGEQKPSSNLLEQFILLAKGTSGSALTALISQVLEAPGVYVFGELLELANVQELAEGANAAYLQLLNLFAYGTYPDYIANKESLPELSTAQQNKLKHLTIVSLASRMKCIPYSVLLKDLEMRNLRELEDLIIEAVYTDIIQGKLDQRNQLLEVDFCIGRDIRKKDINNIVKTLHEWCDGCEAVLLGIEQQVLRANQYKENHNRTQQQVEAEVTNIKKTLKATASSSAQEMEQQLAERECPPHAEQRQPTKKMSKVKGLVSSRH

What was measured:
Experiment in all cases: log2 fold change, soluble protein after heating vs DMSO (PISA); higher = thermal stabilisation; K562 cells, 10 uM, 30 min; active = over 0.2 and 3.5 SD of the protein, either way, in both replicates (recomputed)
[1] = compound: CN1CCN(CCOc2cc(OC3CCOCC3)c3c(Nc4c(Cl)ccc5c4OCO5)ncnc3c2)CC1 [saracatinib]
Method in brief: (§1)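 K562 cells (2×10^6 cells/mL) were treated with 10 μM compound for 30 min, and aliquots were heated for 3 min over 48°C-58°C. Pooled aliquots were extracted in PBS with 0.5% NP-40 at 4°C, and the supernatant after 21,000xg for 90 min was measured by TMTpro 16plex LC-MS/MS with channel sums equalised. Reported thermal stability, relative to control samples and from duplicates, is a log2 fold change.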

[2] = compound: CN1CCN(c2nc(C3=C(c4c[nH]c5ccccc45)C(=O)NC3=O)c3ccccc3n2)CC1 [sotrastaurin]
Method in brief: as §1

[3] = compound: CN1CC[C@H](c2c(O)cc(O)c3c(=O)cc(-c4ccccc4Cl)oc23)[C@H](O)C1 [alvocidib]
Method in brief: as §1

[4] = compound: CN1CCc2c(c3ccccc3n2Cc2ccc(C(=O)NO)cc2)C1 [Tubastatin A]
Method in brief: as §1

[5] = compound: CNC(=O)C1=CC=CC=C1NC2=NC(=NC=C2Cl)NC3=C(C=C(C=C3)N4CCOCC4)OC
Method in brief: as §1

[6] = compound: CNC(=O)c1ccc(Nc2ncc(C(F)(F)F)c(NCc3nccnc3N(C)S(C)(=O)=O)n2)cc1 [defactinib]
Method in brief: as §1

[7] = compound: CNCc1ccc(-c2[nH]c3cc(F)cc4c3c2CCNC4=O)cc1 [rucaparib]
Method in brief: as §1

[8] = compound: CNc1nc(-c2ccc3c(N)n[nH]c3c2)cc(N2C[C@@H](C(=O)NC3CCCCC3)CC[C@H]2C)n1
Method in brief: as §1

[9] = compound: COC(=O)N[C@@H](C)CNc1nccc(-c2cn(C(C)C)nc2-c2cc(Cl)cc(NS(C)(=O)=O)c2F)n1 [encorafenib]
Method in brief: as §1

[10] = compound: COC(=O)[C@H](CCSC)NC(=O)C1=C(C=C(C=C1)NC[C@H](CS)N)C2=CC=CC=C2
Method in brief: as §1

[11] = compound: COC1=CC=C(C=C1)CN2C=CC3=C2C=C(C=C3)C(=O)NO
Method in brief: as §1

[12] = compound: CON(C)C(=O)N1N=C(c2cc(F)ccc2F)S[C@@]1(CCCN)c1ccccc1 [filanesib]
Method in brief: as §1

[13] = compound: CO[C@H]1C[C@@H]2CC[C@@H](C)[C@@](O)(O2)C(=O)C(=O)N2CCCC[C@H]2C(=O)O[C@H]([C@H](C)C[C@@H]2CC[C@H](n3cnnn3)[C@H](OC)C2)CC(=O)[C@H](C)/C=C(\C)[C@@H](O)[C@@H](OC)C(=O)[C@H](C)C[C@H](C)/C=C/C=C/C=C/1C [zotarolimus]
Method in brief: as §1

[14] = compound: COc1cc(C(=O)O)ccc1NC(=O)[C@@H]1N[C@@H](CC(C)(C)C)[C@](C#N)(c2ccc(Cl)cc2F)[C@H]1c1cccc(Cl)c1F [idasanutlin]
Method in brief: as §1

[15] = compound: COc1cc(Nc2ncc3c(n2)-c2ccc(Cl)cc2C(c2c(F)cccc2OC)=NC3)ccc1C(=O)O [alisertib]
Method in brief: as §1

[16] = compound: COc1cc2nc(-c3cc(F)ccc3O)nc(N[C@@H]3CNC[C@H]3C(C)(C)O)c2cc1OC
Method in brief: as §1

[17] = compound: COc1cc2ncnc(Nc3ccc(F)c(Cl)c3)c2cc1OCCCN1CCOCC1 [gefitinib]
Method in brief: as §1

[18] = compound: COc1cccc2cc(-c3nc([C@H]4CC[C@H](C(=O)O)CC4)n4ncnc(N)c34)[nH]c12
Method in brief: as §1

[19] = compound: CS(=O)(=O)CCNCc1ccc(-c2ccc3ncnc(Nc4ccc(OCc5cccc(F)c5)c(Cl)c4)c3c2)o1 [lapatinib]
Method in brief: as §1

[20] = compound: CS(=O)(=O)N1CCN(Cc2cc3nc(-c4cccc5[nH]ncc45)nc(N4CCOCC4)c3s2)CC1 [pictilisib]
Method in brief: as §1

Measured: log2 fold change

CRACR2A isoform 2 (UniProt Q9BSW2)
inactive: [1] 0.021 | [2] 0.029 | [3] 0.008 | [4] 0.023 | [5] -0.028 | [6] -0.017 | [7] -0.015 | [8] 0.036 | [9] 0.046 | [10] 0.052 | [11] 0.019 | [12] 0.03 | [13] -0.013 | [14] -0.002 | [15] -0.062 | [16] 0.186 | [17] 0.092 | [18] 0.082 | [19] -0.007 | [20] 0.138

COX7A2L (UniProt O14548)
inactive: [1] 0.029 | [2] 0.021 | [3] 0.037 | [4] -0.014 | [5] 0.017 | [6] 0.021 | [7] -0.047 | [8] -0.052 | [9] -0.048 | [10] -0.044 | [11] -0.048 | [12] -0.019 | [13] -0.04 | [14] 0.001 | [15] -0.04 | [16] -0.085 | [17] 0.014 | [18] 0.035 | [19] -0.054 | [20] -0.05

CORO1B (UniProt Q9BR76)
inactive: [1] 0.007 | [2] -0.046 | [3] -0.084 | [4] 0.012 | [5] 0.039 | [6] -0.029 | [7] -0.009 | [8] 0.023 | [9] 0.047 | [10] -0.017 | [11] 0.116 | [12] 0 | [13] 0.015 | [14] -0.015 | [15] -0.032 | [16] 0.099 | [17] 0.064 | [18] -0.009 | [19] -0.02 | [20] 0.027

COPRS (UniProt Q9NQ92)
inactive: [1] 0.121 | [2] 0.053 | [3] 0.029 | [4] 0.041 | [5] -0.046 | [6] 0.018 | [7] -0.061 | [8] -0.017 | [9] -0.065 | [10] -0.016 | [11] -0.008 | [12] 0.023 | [13] -0.012 | [14] 0.001 | [15] -0.001 | [16] -0.001 | [17] 0.024 | [18] 0.067 | [19] -0.056 | [20] -0.044

COQ5 (UniProt Q5HYK3)
inactive: [1] -0.031 | [2] 0.107 | [3] -0.027 | [4] 0.005 | [5] 0.045 | [6] -0.005 | [7] -0.044 | [8] -0.035 | [9] -0.069 | [10] 0.032 | [11] 0.076 | [12] -0.061 | [13] -0.011 | [14] 0.018 | [15] 0.112 | [16] 0.02 | [17] 0.045 | [18] 0.106 | [19] 0.037 | [20] 0.123

COMTD1 (UniProt Q86VU5)
inactive: [1] -0.048 | [2] 0.017 | [3] -0.037 | [4] -0.048 | [5] -0.033 | [6] -0.087 | [7] 0.011 | [8] 0.006 | [9] 0.023 | [10] -0.092 | [11] -0.181 | [12] -0.161 | [13] 0.099 | [14] -0.102 | [15] 0.014 | [16] 0.105 | [17] 0.026 | [18] 0.066 | [19] -0.023 | [20] 0.116

COX18 (UniProt Q8N8Q8)
inactive: [1] 0.075 | [2] 0.032 | [3] 0.011 | [4] -0.005 | [5] 0.034 | [6] 0 | [7] 0.018 | [8] -0.013 | [9] -0.013 | [10] 0.008 | [11] -0.024 | [12] -0.066 | [13] -0.026 | [14] -0.002 | [15] -0.04 | [16] -0.04 | [17] 0 | [18] 0.052 | [19] -0.051 | [20] 0.066

Copied from the entries so far (four entries):
COPRS (UniProt Q9NQ92)
inactive: [1] 0.121 | [2] 0.053 | [3] 0.029 | [4] 0.041 | [5] -0.046 | [6] 0.018 | [7] -0.061 | [8] -0.017 | [9] -0.065 | [10] -0.016 | [11] -0.008 | [12] 0.023 | [13] -0.012 | [14] 0.001 | [15] -0.001 | [16] -0.001 | [17] 0.024 | [18] 0.067 | [19] -0.056 | [20] -0.044

COQ5 (UniProt Q5HYK3)
inactive: [1] -0.031 | [2] 0.107 | [3] -0.027 | [4] 0.005 | [5] 0.045 | [6] -0.005 | [7] -0.044 | [8] -0.035 | [9] -0.069 | [10] 0.032 | [11] 0.076 | [12] -0.061 | [13] -0.011 | [14] 0.018 | [15] 0.112 | [16] 0.02 | [17] 0.045 | [18] 0.106 | [19] 0.037 | [20] 0.123

COMTD1 (UniProt Q86VU5)
inactive: [1] -0.048 | [2] 0.017 | [3] -0.037 | [4] -0.048 | [5] -0.033 | [6] -0.087 | [7] 0.011 | [8] 0.006 | [9] 0.023 | [10] -0.092 | [11] -0.181 | [12] -0.161 | [13] 0.099 | [14] -0.102 | [15] 0.014 | [16] 0.105 | [17] 0.026 | [18] 0.066 | [19] -0.023 | [20] 0.116

COX18 (UniProt Q8N8Q8)
inactive: [1] 0.075 | [2] 0.032 | [3] 0.011 | [4] -0.005 | [5] 0.034 | [6] 0 | [7] 0.018 | [8] -0.013 | [9] -0.013 | [10] 0.008 | [11] -0.024 | [12] -0.066 | [13] -0.026 | [14] -0.002 | [15] -0.04 | [16] -0.04 | [17] 0 | [18] 0.052 | [19] -0.051 | [20] 0.066

(list continues)

CORO7 isoform 3 (UniProt P57737)
inactive: [1] 0.011 | [2] -0.05 | [3] 0.019 | [4] -0.014 | [5] 0.001 | [6] -0.025 | [7] -0.014 | [8] -0.011 | [9] 0.042 | [10] 0.008 | [11] 0.024 | [12] -0.196 | [13] 0.018 | [14] 0.037 | [15] -0.024 | [16] -0.203 | [17] 0.007 | [18] 0.009 | [19] 0.018 | [20] 0.005

CRELD2 isoform 5 (UniProt Q6UXH1)
inactive: [1] -0.002 | [2] -0.009 | [3] 0.036 | [4] -0.033 | [5] -0.022 | [6] 0.018 | [7] -0.008 | [8] 0.028 | [9] -0.029 | [10] 0.042 | [11] 0 | [12] -0.011 | [13] -0.026 | [14] -0.041 | [15] -0.031 | [16] -0.017 | [17] -0.043 | [18] -0.002 | [19] 0.02 | [20] -0.041

CPNE2 (UniProt Q96FN4)
inactive: [1] 0.046 | [2] 0.031 | [3] 0.039 | [4] -0.009 | [5] 0.165 | [6] 0.008 | [7] -0.154 | [8] -0.06 | [9] 0.065 | [10] -0.058 | [11] -0.075 | [12] -0.221 | [13] -0.237 | [14] -0.08 | [15] 0.163 | [16] 0.086 | [17] 0.029 | [18] -0.215 | [19] 0.028 | [20] -0.057

CRIPT (UniProt Q9P021)
inactive: [1] 0.035 | [2] 0.013 | [3] 0.079 | [4] -0.033 | [5] -0.038 | [6] 0.009 | [7] 0.149 | [8] -0.04 | [9] -0.001 | [10] -0.028 | [11] -0.084 | [12] -0.111 | [13] 0.043 | [14] -0.031 | [15] -0.003 | [16] -0.033 | [17] -0.089 | [18] -0.01 | [19] -0.042 | [20] 0.042

COPS5 (UniProt Q92905)
inactive: [1] 0.02 | [2] -0.026 | [3] -0.056 | [4] -0.031 | [5] 0.007 | [6] -0.036 | [7] -0.066 | [8] -0.019 | [9] 0.018 | [10] 0.002 | [11] 0.055 | [12] -0.091 | [13] 0.045 | [14] -0.12 | [15] -0.084 | [16] -0.04 | [17] -0.01 | [18] 0.016 | [19] 0.048 | [20] 0.01

CPNE3 (UniProt O75131)
inactive: [1] 0.042 | [2] -0.034 | [3] -0.067 | [4] -0.08 | [5] 0.009 | [6] -0.065 | [7] -0.027 | [8] -0.017 | [9] 0.032 | [10] 0.017 | [11] 0.025 | [12] 0.02 | [13] 0.049 | [14] -0.009 | [15] 0.031 | [16] 0.054 | [17] 0.008 | [18] 0.025 | [19] 0.014 | [20] 0.017

COTL1 (UniProt Q14019)
inactive: [1] -0.019 | [2] -0.018 | [3] -0.052 | [4] -0.009 | [5] 0.024 | [6] -0.046 | [7] -0.094 | [8] -0.01 | [9] 0.02 | [10] -0.019 | [11] 0.011 | [12] 0.024 | [13] 0.016 | [14] -0.09 | [15] -0.056 | [16] -0.006 | [17] 0.015 | [18] 0.031 | [19] -0.009 | [20] 0.055

COX7A2 (UniProt P14406)
inactive: [1] -0.002 | [2] 0.057 | [3] 0 | [4] 0.009 | [5] 0.029 | [6] 0 | [7] -0.028 | [8] -0.084 | [9] -0.061 | [10] 0.13 | [11] -0.114 | [12] 0.008 | [13] -0.011 | [14] -0.028 | [15] -0.228 | [16] -0.049 | [17] 0.034 | [18] 0.061 | [19] -0.083 | [20] -0.014

COPS7B (UniProt Q9H9Q2)
inactive: [1] 0.03 | [2] 0.003 | [3] -0.014 | [4] -0.024 | [5] 0.01 | [6] -0.023 | [7] 0.041 | [8] 0.025 | [9] 0.022 | [10] -0.002 | [11] 0.093 | [12] 0.013 | [13] 0.02 | [14] 0.02 | [15] -0.027 | [16] -0.01 | [17] -0.008 | [18] 0.04 | [19] 0.032 | [20] 0.018
